# PubChem BioAssay AID2685 (National Center for Advancing Translational Sciences (NCATS), 2010)
# This is one part of the list. Shown are side measurements of this screen, not its main read-out; they come without a call. Compounds called inactive in the main read-out are mostly missing here. Words in brackets tell the shape of the fitted curve; partial curves, single points and poor fits give uncertain potencies.
# Experiment: qHTS Assay for Lipid Storage Modulators in Drosophila S3 Cells;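 on cell number change: cells counted by Cell Tracker Red CMTPX staining in the red channel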
# Conditions: BODIPY lipid droplet fluorescence, 18-24 h; for cell number change: measured here: cell count max response, cells fed with added oleic acid
# Method in brief: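 Drosophila S3 cells got compounds at several concentrations plus oleic acid (400 uM solution). Laser-scanning cytometry with 488 nm excitation read lipid droplets at 500-530 nm and cells at 575-640 nm. Percent activity was relative to 20 uM Triacsin C.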
# [1] = measured here: lipid fluorescence (Fed channel) AC50, cells fed with added oleic acid
# [2] = measured here: cell number channel AC50, cells fed with added oleic acid
Compound,cell number change [%],AC50 [1],AC50 [2]
COc1cc(SC)ccc1C(=O)NCCc1c[nH]c2ccccc12,-18.2,"2.06 µM [falling, partial curve]",
CC1=NN(c2ccc(C(=O)O)cc2)C(=O)/C1=C/c1ccc(-c2ccccc2F)o1,-98.6,"7.31 µM [falling, partial curve]","20.6 µM [falling, single point]"
CCOc1ccc(/C=N/NC(=O)c2ccc(Cn3cc(Br)cn3)o2)cc1,12.7,"0.517 µM [rising, full curve]",
Cc1noc(C)c1COC(=O)c1cc2c3ccccc3n(C)c2s1,52.8,"3.26 µM [rising, partial curve]","7.31 µM [rising, partial curve]"
Cc1cn2c(=O)c(C(=O)NCc3ccc4c(c3)OCO4)cnc2s1,34.7,"29.1 µM [rising, single point]","29.1 µM [rising, single point]"
O=C(CNC(=O)c1cccs1)N/N=C/c1ccccc1[N+](=O)[O-],-20,"6.51 µM [falling, single point]",
Cc1ccc(OC(C)C(=O)Nc2ccccc2C(=O)N2CCN(C)CC2)cc1 (configuration not stated),-10.5,"29.1 µM [falling, single point]",
CCN(CC(=O)Nc1ccc(S(=O)(=O)N2CCCC2)cc1)Cc1ccccc1,-19.6,,
CCOC(=O)N1CCN(CC(=O)Nc2c(C(=O)OC)[nH]c3ccc(Cl)cc23)CC1,-36.6,"29.1 µM [falling, single point]","13 µM [falling, partial curve, poor fit]"
Cc1cccc(NC(=O)c2ccccc2OCC(=O)N2CCCC2)c1C,50.6,"0.82 µM [rising, full curve, poor fit]","16.4 µM [rising, partial curve, poor fit]"
Cc1occc1-c1nnc(SCC(=O)NCCc2ccccc2)o1,,"0.0731 µM [rising, partial curve, poor fit]",
COC(=O)c1ccc(COc2ccc3c(C)c(C)c(=O)oc3c2C)o1,21,"9.2 µM [rising, partial curve, poor fit]",
COc1cccc(C(=O)CN(C(=O)c2ccc(Cl)c(Cl)c2)N2C(=O)c3ccccc3C2=O)c1,-23.2,"0.651 µM [rising, full curve, poor fit]",
C=CCNc1nc(C)nc(OC)n1,-23.6,,
CS(=O)c1ccccc1O (configuration not stated),-12.6,"0.146 µM [falling, full curve, poor fit]","0.164 µM [falling, full curve, poor fit]"
CN(Cc1cc([N+](=O)[O-])ccc1Cl)C(=O)C[n+]1ccccc1,,"0.411 µM [rising, partial curve, poor fit]",
O=C1[C@H]2[C@@H](c3ccc(F)cc3)N3C(=O)N(c4cccc(F)c4)C(=O)[C@@]3(Cc3ccc(Cl)cc3)[C@H]2C(=O)N1C1CCCCC1,-31.9,,"3.26 µM [falling, full curve, poor fit]"
CCOc1cc(/C=N/NC(=O)C2CCCC2)ccc1O,,"29.1 µM [falling, single point]",
Cc1ccc(NC(=S)N(CCN2CCCCC2)Cc2ccco2)cc1C,86.3,"0.58 µM [rising, single point]","16.4 µM [rising, partial curve]"
CCOc1ccc2[nH]c(C(=O)N/N=C/c3cc(OC)c(OC)c(OC)c3)cc2c1,-19.1,"25.9 µM [falling, single point]",
CC1CCN(C(=O)c2[nH]cnc2C(=O)N[C@@H](C)c2ccccc2)CC1,6.02,"6.51 µM [rising, partial curve]",
CC(NC(=O)C1CC=CCC1C(=O)O)C1CC2CCC1C2 (configuration not stated),-12.2,,
COc1ccc(C(=O)N2CCN(C(C)=O)CC2)cc1S(=O)(=O)NCc1ccc(Cl)cc1,1.59,"2.31 µM [rising, single point]",
COc1ccc(Cl)cc1C(=O)Nc1ccc(NC(=O)C(C)C)cc1,11.3,,
O=C(Nc1cccnc1)c1ccccc1NS(=O)(=O)c1ccc(F)cc1,-116,"29.1 µM [falling, single point]","20.6 µM [falling, single point]"
O=C(NCCCn1ccnc1)/C(=C/c1ccc(F)cc1)NC(=O)c1ccccc1,-23.1,,
CCc1ccc(S(=O)(=O)Nc2cc(SCC(=O)O)c(O)c3ccccc23)cc1,-46.1,"25.9 µM [falling, partial curve]","18.4 µM [falling, single point]"
CCN(CC)CCOC(=O)c1ccc(N/C=C(/C#N)c2nc(-c3ccc(OC)cc3)cs2)cc1,-50.4,,"29.1 µM [falling, single point]"

# Laid out differently: 3 of the compounds above.
Compound	cell number change [%]	AC50 [1]	AC50 [2]
Cc1ccc(OC(C)C(=O)Nc2ccccc2C(=O)N2CCN(C)CC2)cc1 (configuration not stated)	-10.5	29.1 µM [falling, single point]	
CCN(CC(=O)Nc1ccc(S(=O)(=O)N2CCCC2)cc1)Cc1ccccc1	-19.6		
CCOC(=O)N1CCN(CC(=O)Nc2c(C(=O)OC)[nH]c3ccc(Cl)cc23)CC1	-36.6	29.1 µM [falling, single point]	13 µM [falling, partial curve, poor fit]

# Following part.

Compound,cell number change [%],AC50 [1],AC50 [2]
CCN(c1ccccc1)S(=O)(=O)c1ccc(C(=O)NCc2ccccn2)cc1,-6.79,"2.91 µM [falling, partial curve]",
CC(=O)Nc1ccc(NC(=O)CSc2nccn2Cc2ccccc2)cc1,3.23,"0.00411 µM [rising, full curve, poor fit]",
CSc1ncc(CN2CCCC(C(=O)c3ccc(C(C)(C)C)cc3)C2)cn1 (configuration not stated),-2.29,"0.103 µM [falling, full curve, poor fit]",
O=C1CC2(CCN(C(=O)c3ccccc3[N+](=O)[O-])CC2)Oc2ccccc21,2.77,"0.731 µM [falling, single point]",
c1ccc(Cn2ccnc2-c2ccco2)cc1,-23.8,,"1.84 µM [rising, partial curve]"
CCN(C(=O)COC(=O)c1c2c(nc3ccccc13)/C(=C/c1ccccc1)CC(C)C2)C1CCS(=O)(=O)C1 (configuration not stated),,"23.1 µM [falling, single point]","0.00461 µM [falling, full curve, poor fit]"
O=C(Nc1ccccc1N1CCCC1)c1cccc(-c2cc3ccccc3oc2=O)c1,3.5,"0.231 µM [rising, full curve, poor fit]",
Cc1c(Cl)cccc1NC(=O)CCCN1C(=O)c2cccnc2C1=O,13,"6.51 µM [rising, single point]",
COc1ccc2sc(N(CCCN(C)C)C(=O)c3ccc(S(=O)(=O)N(C)Cc4ccccc4)cc3)nc2c1,32.5,"29.1 µM [rising, single point]","29.1 µM [rising, single point]"
CCOC(Cn1ccc(=O)[nH]c1=O)OCC,,"0.291 µM [rising, full curve, poor fit]",
CCOC(=O)N/N=C/c1ccc(F)cc1,17,"6.51 µM [rising, partial curve, poor fit]","7.31 µM [rising, partial curve, poor fit]"
Cc1ccccc1-c1nc(CS(=O)(=O)CC(=O)NC2CCCCC2C)c(C)o1 (configuration not stated),23.2,"29.1 µM [rising, single point]",
CCCCn1c(N)c(N(CC(C)C)C(=O)Cn2c(=O)oc3ccccc32)c(=O)[nH]c1=O,10,,
CC(C)CNC(=O)c1cc2nc3c(c(C(F)(F)F)n2n1)CCc1ccccc1-3,-0.53,,
Cc1ccc(NC(=O)CN(C)C(=O)c2cccc(S(=O)(=O)NCc3cccs3)c2)cc1,-4.05,"0.116 µM [falling, full curve, poor fit]",
CCN(C(=O)CSc1ncccc1C(=O)OC(C)C)c1cccc(C)c1,1.19,,
CN(C)/C=C1\N=C(c2ccc(Cl)cc2Cl)OC1=O,,"6.51 µM [rising, partial curve]","0.366 µM [rising, partial curve, poor fit]"
CCCN1CCN(C(=O)c2cc3c(s2)-c2ccccc2S(=O)(=O)C3)CC1,7.59,,
Cc1ccc(-c2nnn(CC(=O)N(CCCO)C(C(=O)NC3CCCC3)c3ccc(Cl)cc3)n2)o1 (configuration not stated),3.95,,
COc1ccc(/C=C/C(=O)NC(=S)NNC(=O)Cc2cccs2)cc1,53.9,"29.1 µM [rising, single point]","16.4 µM [rising, single point]"
CCCC1(c2ccccc2)NC(=O)N(CC(=O)Nc2cc(OC)cc(OC)c2)C1=O (configuration not stated),-0.952,,
COc1ccc(CNC(=O)c2c(-c3cc(Cl)c(OC)c(Cl)c3)noc2C)cc1,52,"2.31 µM [rising, full curve]","2.31 µM [rising, full curve]"
COc1ccc(O[C@H]2C=C[C@@H](c3ccccc3)O[C@@H]2CO/N=C/C[C@@H]2C=C[C@H](OC(C)=O)[C@@H](COC(C)=O)O2)cc1,8.65,"6.51 µM [rising, partial curve]","1.84 µM [rising, partial curve, poor fit]"
CN1CCC(N(C)C(=O)NC2CCCCC2)CC1,-41.4,"1.3 µM [falling, full curve]","0.411 µM [falling, partial curve]"
CCOc1ccc(CCNC(=O)COC(=O)c2ccc(S(C)(=O)=O)cc2)cc1OCC,-46.3,"18.4 µM [falling, partial curve]","29.1 µM [falling, single point]"
COc1ccc(N(CC(=O)NCc2ccc(Cl)cc2)S(=O)(=O)c2c(C)n[nH]c2C)cc1,9.16,"29.1 µM [rising, single point]",
CC(NCc1ccc2c(c1)OCO2)C(=O)NC1CCCc2ccccc21 (configuration not stated),57,"6.51 µM [rising, single point]","8.2 µM [rising, partial curve]"
